# Experimental data as given in PubChem BioAssay AID1487 (National Center for Advancing Translational Sciences (NCATS), 2009).
# Screen size: about 200,000 compounds; about 25 (0.01%) were called active. Inconclusive results, whose numbers are uncertain, are shown with a selection of clear calls. The call rests on the fitted dose curve; in most records, active means well fitted inhibition curve with a large enough effect in the signal ratio, with a control signal flat (not every such curve was filed as active); inconclusive means small, poorly fitted or top-dose-only effect, or effect the other way, or a change in a side signal; inactive means flat fitted curve, though single readings scatter; the % refers to the signal ratio. Where the call is inconclusive, the potency comes from a doubtful curve fit.
# Experiment: qHTS Assay for Modulators of Lamin A Splicing
# Details: HeLa LMNA splicing GFP/RFP minigene ratio, 48 h; ratio change, negative = inhibition: at 46.1 µM (top of the series) unless noted
# Excerpt: NCGC Assay Overview: Hutchinson-Gilford Progeria Syndrome (HGPS) is a pediatric premature aging disease caused by a spontaneous mutation in the lamin A/C (LMNA) gene. The mutation activates a cryptic splice site in the LMNA pre-mRNA which results in production of a pre-lamin A protein that cannot be processed properly. The mutant protein accumulates in the nucleus and negatively affects numerous cellular functions. Correction of the splicing defect in HGPS patient cells using a targeted oligonucleotide (exo11) leads to reversal of the cellular disease phenotypes. To identify small molecule modulators of aberrant LMNA splicing, a homogenous assay was constructed in HeLa cells that used a GFP containing minigene to report on correction of aberrant splicing in lamin A and a RFP (DsRed2) to report on cell viability, uniformity and nonspecific effects on the assay signal. This assay was adapted to laser-scanning microplate cytometry (Acumen, TTP Labtech) where miniaturization of the assay to a 1,536-well plate format was possible. References: Bowen, W. P.; Wylie, P. G. Application of Laser-Scanning Fluorescence Microplate Cytometry in High Content Screening. Assay Drug Dev Technol 2006;4:209-221. Scaffidi P, Misteli T. Reversal of the cellular phenotype in the premature aging disease Hutchinson-Gilford progeria syndrome. Nat.
# NCGC Assay Protocol Summary: Reagents/Controls: Stable clones expressing DsRed2 and lamin A-EGFP were generated by Cell and Molecular Technologies in S3 HeLa cells. HeLa cells were prepared for the assay when they were 70-90% confluent. The cells were counted and resuspended in Opti-MEM I (no phenol red; Gibco), 2% FBS, 1% penicillin/ streptomycin (Gibco) at concentration of 120 cells/uL concentration. The suspension was passed through a Falcon basket filter with pore size 40um (Beckton Dickson). Control titrations: column […] 1536-well plate contained a sixteen point titration (1:2 dilutions) in duplicate of ancitabine (Sigma: A8598) beginning at 40 uM final concentration. Column 2 contained a sixteen point titration (1:2 dilutions) of cycloheximide beginning at 1.4 mM final concentration. Column 3 contained ancitabine at 40 uM and column 4 contained was the vehicle control (0.5% DMSO final concentration). Assay Steps: 5 uL of HeLa cells were plated in Aurora LoBase black clear bottom (cyclic-olefin polymer) 1536-well plates at a final density of 600 cells/well. Controls and library compounds were added with a 1536-well pin array using the Kalypsys pin-tool. The plates were then incubated for 48 hrs in a cell-culture incubator (37 °C; 5% CO2, 98% humidity). Following incubation the plates were read on the Acumen Explorer using the 488 nm laser. Data was collected on objects between 10 and 100 um in size. Cell objects were defined by a 15 um width x 10 um depth filter. The ratio of the total object intensity in PMT1 (500-530 nm emission; GFP) over PMT3 (575-640 nm emission; RFP) was calculated for analysis. Keywords: NIH Roadmap, MLSCN, MLI, MLSMR, qHTS, NCGC, lamin A, Progeria, RNA splicing.
# On the % scale 0 is the no-effect control and ±100 the full control effect; potency means the concentration at half of the fitted maximal effect.
Compound,"ratio change, negative = inhibition",Potency
CCO/C(=C/c1sc2ccc(OC)cc2[n+]1CCCS(=O)(=O)[O-])CC,inactive,–
O=C(/C=C/c1ccccc1[N+](=O)[O-])NCc1ccc(Cl)cc1,inconclusive: 22.3% [at 46 µM],–
CCOC(=O)C1C(=O)C=C(c2ccc(C)cc2)CC1c1ccco1 (stereo not given),inactive: 17.3% [at 0.0737 µM],–
S=C(NCCc1ccccc1)Nc1cccc2cnccc12,inconclusive: -47.4% [at 46 µM],–
CCN(CC)c1ccc(/C=C2/C(=O)c3ccc(C(=O)O)cc3C2=O)cc1,inactive,–
COc1ccc(C2CC(=O)c3c(C)nc(N4CCN(Cc5ccccc5)CC4)nc3C2)cc1OC (stereo not given),–,"inconclusive: 4.47 µM [fluorescent, full curve]"
Cc1ccccc1C(=O)NC(=S)Nc1ccccc1C(F)(F)F,inactive,–
C=CCOc1c(OC)cc(/C=N/Nc2cccc(C(=O)O)c2)c(Br)c1Br,inconclusive: 8.07%,–
CCc1c(C(=O)NNC(=S)NC2CCCCC2)csc1C,inconclusive: 3.73% [at 46 µM],–
CCOC(=O)C(NC(=O)c1cccc(Cl)c1)(OCc1ccc(F)cc1)C(F)(F)F (stereo not given),inconclusive: 38.7%,–
O=C(COc1cccc(Cl)c1)N/N=C\c1cc2ccccc2nc1Cl,inactive,–
COC(=O)/C=C(\C)NC(=O)c1cccs1,inactive,–
CC(=O)Nc1nc(-c2ccccc2)nc(C)c1C(C)=O,inconclusive: -4.69%,–
Cc1ccc(-n2c(CCc3ccccc3)nnc2SCC(=O)NCc2ccccc2)cc1C,inactive,–
O=C1c2c(O)cc(O)cc2OC(c2ccc(O)c(O)c2)C1O (stereo not given),inactive,–
CCCCOC(=O)/C=C\C(=O)NC(N)=O,inconclusive: -43.2% [at 46 µM],–
Fc1ccc(-c2n[nH]c(=S)c3ccccc23)cc1,inactive,–
O=C1CC(c2ccccc2)=NN1c1nc(-c2ccccc2)cs1,inconclusive: -40.2% [at 46 µM],–
O=C(Nc1cccc(Cl)c1)NC1CC2CCC(C1)N2Cc1cccs1 (stereo not given),inconclusive: -11.4% [at 46 µM],–
CCOC(=O)CNS(=O)(=O)c1cc(-c2nn(C)c(=O)c3ccccc23)ccc1C,inactive,–
N#Cc1ccsc1NC(=O)CSc1ncnc2ccccc12,inconclusive: -34.4%,–
O=C(c1cc2cc(Br)ccc2o1)N1CCCC1,inconclusive: -4.63% [at 46 µM],–

Compound,"ratio change, negative = inhibition",Potency
CC1(CCc2ccccc2)NC(=S)N(c2ccccc2)N1 (stereo not given),–,"inconclusive: 10 µM [activator, partial curve]"
Nc1n[nH]c2cc(=O)n(-c3cccc(C(F)(F)F)c3)nc12,inconclusive: -34.4% [at 46 µM],–
CCCCOc1ccc(C(=O)N2CCCC2)cc1,inactive,–
Cc1nnc2n1N=CC=C(c1ccccc1)S2,–,"inconclusive: 15.8 µM [inhibitor, partial curve]"
CN(C)c1ccc(/C=C(\C#N)C(=O)Nc2nc3c(s2)CCN(Cc2ccccc2)C3)cc1,inactive,–
CCOc1ccc(C(=O)Nc2cccc(C(=O)OCc3cc(=O)n4nc(C5CC5)sc4n3)c2)cc1,inconclusive: -0.111% [at 46 µM],–
Cc1ccc(CSc2nnc(-c3ccc4c(c3)OCO4)o2)cc1,inconclusive: 37.7%,–
CC(C(=O)Nc1ccc(C#N)cc1)N(C)CC(=O)Nc1ccccc1Br (stereo not given),inconclusive: -32.3% [at 46 µM],–
O=C(COC(=O)c1cccs1)Nc1cc(S(=O)(=O)N2CCOCC2)ccc1Cl,inconclusive: -12.5% [at 46 µM],–
Cc1cccc(N2C(=O)CS(=O)(=O)C23C(=O)N(Cc2c(F)cccc2Cl)c2ccccc23)c1 (stereo not given),inactive,–
CCn1c(CNc2ccc(Cl)cc2)nnc1SCc1ccc(C)cc1,–,"inconclusive: 35.5 µM [falling, single point]"
CS(=O)(=O)Nc1ccc(C(=O)N2CCc3ccccc3C2)cc1,inconclusive: 15.1% [at 46 µM],–
CCc1ccc(-c2cc(C(=O)NCc3ccco3)c3ccccc3n2)s1,inconclusive: 23.1%,–
COc1ccc(CCC(N)=O)cc1OC,inactive,–
Cc1ccc(OCCn2cc(Br)c(=O)[nH]c2=O)cc1,inactive,–
CCn1c(C)[n+](CC)c2ccc(C(=O)N(C)c3ccccc3)cc21,inconclusive: 0.0036% [at 46 µM],–
O=c1c2nccnc2[nH]c(=S)n1Cc1ccccc1,inconclusive: 25.1% [at 9.22 µM],–
COc1ccc(NC(=O)CN2CCN(S(=O)(=O)c3ccc(C(C)C)cc3)CC2)cc1OC,inactive,–
Cc1ccc(C)c(N2CCN(S(=O)(=O)c3cccc4cccnc34)CC2)c1,inconclusive: 7.32% [at 9.22 µM],–
CCC(CC)NC(=O)/C=C/c1cccc([N+](=O)[O-])c1,inconclusive: 10.6%,–
COC(=O)CSc1nc(C)cc(C)c1C#N,inactive,–
COc1cccc(NC2C=CS(=O)(=O)C2)c1 (stereo not given),–,"inconclusive: 12.6 µM [falling, partial curve, poor fit]"

Compound,"ratio change, negative = inhibition",Potency
CCCCC(=O)Nc1c(C)cc(C)cc1Cl,inactive,–
Cn1c(CCN2CCCCC2)nc2cc([N+](=O)[O-])ccc21,–,"inconclusive: 14.1 µM [inhibitor, single point]"
O=C(Nc1ncc(Cc2cccc(Cl)c2Cl)s1)C1CCCO1 (stereo not given),inconclusive: 27.4% [at 46 µM],–
O=C(Nc1ccc(SC(F)(F)F)cc1)c1ccccn1,inconclusive: 2.26% [at 46 µM],–
CCOc1ccc(S(=O)(=O)/N=C(/c2ccccc2)N(C)C)cc1,inactive,–
CC(/C=N/NC(=O)c1cc(-c2ccc(C)s2)[nH]n1)=C\c1ccccc1,–,"inconclusive: 3.98 µM [falling, full curve, poor fit]"
CCN(c1cccc(C)c1)S(=O)(=O)c1ccc(OC)c([N+](=O)[O-])c1,inactive,–
COc1ccc(-c2c3c(=O)n(C)c(=O)n(C)c3cn2C2CCCCC2)cc1,inconclusive: 18.1%,–
Nc1c(C(=O)NCc2ccc3c(c2)OCO3)c2nc3ccccc3nc2n1CCCN1CCOCC1,–,"inconclusive: 31.6 µM [cytotoxic, single point]"
O=C(c1ccc(S(=O)(=O)NCC2CCCO2)cc1)N1CCc2ccccc21 (stereo not given),–,"inconclusive: 11.2 µM [fluorescent, partial curve]"
CCNc1ncc2nc(CCc3ccccc3)c(=O)n(Cc3cccc(OC)c3)c2n1,inconclusive: 32.7%,–
C/C=C/c1ccc(OCCOc2cc(C=O)ccc2OC)c(OC)c1,–,"inconclusive: 28.2 µM [fluorescent, single point]"
Cc1cc(C(=O)CN2C(=O)CCC2=O)c(C)n1Cc1ccccc1,inactive,–
COc1ccccc1-c1nnc(SCC(=O)NC2CCS(=O)(=O)C2)n1N (stereo not given),inactive,–
Cc1csc(NC(=O)CCNS(=O)(=O)c2ccc3c(c2)c(=O)n(C)c(=O)n3C)n1,inconclusive: 51.3%,–
CCOC(=O)N1CCN(c2cc(C)nc3nc(C)nn23)CC1,inactive,–
COc1cc2nc(N3CCN(C(=O)C4CCCO4)CC3)nc(N)c2cc1OC (stereo not given),inconclusive: -17.2% [at 46 µM],–
Cc1ccc(C(C2=C(O)CC(C)(C)CC2=O)C2C(=O)CC(C)(C)CC2=O)s1 (stereo not given),inactive,–
COc1cccc(NC(=O)C2CC(=O)n3cnnc3S2)c1 (stereo not given),inactive,–
COc1ccc(NC(=O)c2cc3ccccn3n2)cc1,inactive,–
C[C@H]1C[C@H]2[C@@H]3CCC4=CC(=O)C=C[C@]4(C)[C@@]3(Cl)[C@@H](O)C[C@]2(C)[C@@]1(O)C(=O)CO,inconclusive: -10.8%,–
Cc1ccc(Cn2cnc3c(oc4ccccc43)c2=O)cc1,inactive,–

Compound,"ratio change, negative = inhibition",Potency
CCNC(=O)CCCOc1ccc(Cl)cc1Cl,inactive,–
O=C1C=C(NNC(=O)c2cccnc2)CC(c2ccco2)C1 (stereo not given),inconclusive: 7.46% [at 46 µM],–
Cc1ccc(NS(=O)(=O)c2cc(-c3n[nH]c(=O)c4ccccc34)ccc2C)cc1,–,"inconclusive: 10 µM [fluorescent, partial curve]"
C/C(=N\NC(=O)c1cccc(N/N=C(\C)c2cc(O)ccc2O)c1)c1cc(O)ccc1O,inactive,–
COC(=O)c1cc(N2C(=O)C3C(C2=O)C2(C)C=CC3(C)O2)ccc1Cl (stereo not given),inconclusive: -20.7%,–
CSc1nc2ccc(Br)cc2[nH]1,inconclusive: -16.8% [at 46 µM],–
COc1ccc(/C=N/Nc2ccccn2)c(OC)c1OC,–,"inconclusive: 11.2 µM [inhibitor, partial curve, poor fit]"
CC1=Nc2ccccc2/C1=C\c1sc(Nc2ccc(C)cc2)nc1O,–,"inconclusive: 0.891 µM [fluorescent, full curve, poor fit]"
COc1ccc(-c2noc(N3CCC(C(=O)N4CCN(c5ccccn5)CC4)CC3)n2)cc1,–,"inconclusive: 3.16 µM [fluorescent, full curve]"
C[N+]1(CC(=O)NNc2c3ccccc3nc3ccccc23)CCOCC1,inconclusive: -45.4% [at 46 µM],–
COc1ccc(-c2nnc3n2-c2ccccc2SC3)cc1OC,inactive,–
C=CCn1c(SC(C)C#N)nc2sc(CC)cc2c1=O (stereo not given),inactive,–
CCc1ccc(NC(=O)N(Cc2ccco2)C(C)c2cccs2)cc1 (stereo not given),inconclusive: -2.63%,–
CCn1nc(C(=O)Nc2cccc(C(F)(F)F)c2)c(Cl)c1Cl,inconclusive: -7.03%,–
O=C(COCc1cc(-c2cccs2)on1)NCc1ccc(Cl)cc1,inactive,–
CCN1CCN(c2ccc(NC(=O)c3cccc(OCc4ccccc4)c3)cc2)CC1,inactive,–
O=C(Cc1ccccc1[N+](=O)[O-])Nc1ccccc1C(=O)N1CCCC1,inconclusive: 1.8% [at 46 µM],–
N#C/C(=N\Nc1ccc(F)cc1)C(=N)N1CCCCC1,inactive,–
OC(COc1ccc2c(c1)OCO2)CN1CCN(c2ccccc2)CC1 (stereo not given),inconclusive: -4.88% [at 46 µM],–

# 12 compounds out of the list, ordered by SMILES length, low to high.
Compound,"ratio change, negative = inhibition",Potency
CSc1nc2ccc(Br)cc2[nH]1,inconclusive: -16.8% [at 46 µM],–
C=CCn1c(SC(C)C#N)nc2sc(CC)cc2c1=O (stereo not given),inactive,–
COc1ccc(-c2nnc3n2-c2ccccc2SC3)cc1OC,inactive,–
O=C1C=C(NNC(=O)c2cccnc2)CC(c2ccco2)C1 (stereo not given),inconclusive: 7.46% [at 46 µM],–
O=C(COCc1cc(-c2cccs2)on1)NCc1ccc(Cl)cc1,inactive,–
OC(COc1ccc2c(c1)OCO2)CN1CCN(c2ccccc2)CC1 (stereo not given),inconclusive: -4.88% [at 46 µM],–
CCn1nc(C(=O)Nc2cccc(C(F)(F)F)c2)c(Cl)c1Cl,inconclusive: -7.03%,–
C[N+]1(CC(=O)NNc2c3ccccc3nc3ccccc23)CCOCC1,inconclusive: -45.4% [at 46 µM],–
O=C(Cc1ccccc1[N+](=O)[O-])Nc1ccccc1C(=O)N1CCCC1,inconclusive: 1.8% [at 46 µM],–
CCN1CCN(c2ccc(NC(=O)c3cccc(OCc4ccccc4)c3)cc2)CC1,inactive,–
COc1ccc(-c2noc(N3CCC(C(=O)N4CCN(c5ccccn5)CC4)CC3)n2)cc1,–,"inconclusive: 3.16 µM [fluorescent, full curve]"
C/C(=N\NC(=O)c1cccc(N/N=C(\C)c2cc(O)ccc2O)c1)c1cc(O)ccc1O,inactive,–
